Source: patent US5252558A (Richter Gedeon Vegyeszeti Gyar RT, priority 1990, dated 1993)

Assay: general procedure: solution-phase peptide synthesis; active esters (Z-Glu(OtBu)-OSu, pAad-Opfp)
Conditions: late stage modification step

| Substance | step yield (oxalate) [%] | step yield [%] |
| --- | --- | --- |
| Glu Asp Ser Gly as the oxalate Sequence 4 | 90 |  |
| PEPTIDE1{[pAad].E.D.S.G}$$$$V2.0 |  | 48 |

Some peptides are written in HELM: one residue between dots, names in brackets for other building blocks, links after the first $.
